Assays:
LD50 = test: LD50; design: species or system male mice (NMRI); details: mouse, in vivo; oral; ">": no effect up to this highest examined dosage
Description: Experimental animals used were male mice (NMRI, origin: Ivanovas, Kissleg) of weight 18 to 25 g. The animals were allowed food and water ad lib.. but, according to the test, they were fasted for two to 16 hours before the beginning of the test with water allowed ad lib.
The substances under test were applied orally by means of a stomach tube in a 0.8% methocel suspension 30 minutes before the start of the test.

benzodiazepine rec. = test: GABA-Ratio, benzodiazepine receptor binding; details: in words

CN1C(=O)CN=C(c2ccccc2)c2cc(Cl)ccc21 [Diazepam, reference compound]
LD50 (LD50): 700 mg/kg
GABA-Ratio, agonist character (benzodiazepine rec.): agonist
